Laboratory results: publication doi:10.1101/2023.03.09.531843
These are yes or no findings as the source states them, for the method shown. Binding seen in cells or lysates may run through a third protein. Some binding calls cover weakened binding; strength is not graded here.

The chains behind the UniProt entries cited, without tags or fusion partners.
UniProt P12004: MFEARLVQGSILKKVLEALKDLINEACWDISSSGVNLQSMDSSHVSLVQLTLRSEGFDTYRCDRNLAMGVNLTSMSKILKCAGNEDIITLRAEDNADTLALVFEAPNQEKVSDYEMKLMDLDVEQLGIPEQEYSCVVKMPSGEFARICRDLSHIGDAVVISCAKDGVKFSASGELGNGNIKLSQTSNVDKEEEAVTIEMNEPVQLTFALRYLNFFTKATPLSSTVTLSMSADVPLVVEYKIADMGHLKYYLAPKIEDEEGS
UniProt P15927: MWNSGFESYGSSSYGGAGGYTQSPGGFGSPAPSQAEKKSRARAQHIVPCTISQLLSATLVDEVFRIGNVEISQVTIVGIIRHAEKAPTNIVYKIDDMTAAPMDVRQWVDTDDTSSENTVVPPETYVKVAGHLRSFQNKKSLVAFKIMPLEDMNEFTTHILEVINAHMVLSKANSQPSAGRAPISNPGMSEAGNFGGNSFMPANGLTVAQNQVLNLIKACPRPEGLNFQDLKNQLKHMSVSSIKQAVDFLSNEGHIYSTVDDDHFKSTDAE

Legend:
[1] = biological target: PCNA (human (endogenous in U2OS)) (UniProt P12004); assay: proximity ligation
[2] = biological target: RPA32 phosphorylated at S33 (RPA32-pS33) (human (endogenous in U2OS)) (UniProt P15927); assay: proximity ligation

- binding [1]: binds
- binding [2]: binds
B1: CGG binding protein 1 (CGGBP1) (protein, UniProt Q9UFW8 1-167)
chain: MERFVVTAPPARNRSKTALYVTPLDRVTEFGGELHEDGGKLFCTSCNVVLNHVRKSAISDHLKSKTHTKRKAEFEEQNVRKKQRPLTASLQCNSTAQTEKVSVIQDFVKMCLEANIPLEKADHPAVRAFLSRHVKNGGSIPKSDQLRRAYLPDGYENENQLLNSQDC
